PubChem BioAssay AID686938, Drosophila RNAi Screening Center – 2013
Test: 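Looking for CRAC channel components and the factors controlling them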 (primary screen). Cell system: Drosophila S2R+ cells. Knock-down reagent: long dsRNA against Drosophila genes, about 0.25 µg dsRNA per well, roughly 10,000 cells. Timing: 5 days of knock-down before the calcium assay. Conditions: thapsigargin (SERCA pump blocker) to empty calcium stores; entry signal taken 4 min after adding it. Detection: 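Per-well fluo-4 fluorescence in two replicates, unnormalised, measured in resting cells and 4 min after store depletion by the SERCA blocker thapsigargin; ratio of the two present in few wells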. Scale: calcium entry signal: higher = stronger calcium signal after store depletion; entry to resting ratio: higher = more calcium entry relative to resting level; resting calcium signal: higher = higher resting calcium signal. Rule for the call: 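Called when the plate z-score of the entry-to-rest ratio, mean of duplicates, falls below −3; wells with low overall dye signal (Fmax z below −2) or more than five off-targets excluded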. Calls: active = strongly reduced calcium entry; inactive = no strong reduction.
The deposit covers about 23,000 reagents; below is an unselected part of those that have a named target and a result. Of all reagents, 75 (0.33%) got an active call. 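Raw plate signals without normalisation; calls rest on plate z-scores that were not deposited; ratio present for only 364 wells.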 A plus sign joins genes that one reagent is predicted to hit. Reagent sequences are not shown. Not stated in the record: the dose of the treatment.

Target gene | DRSC id | calcium entry signal, replicate 1 (fluorescence units) | calcium entry signal, replicate 2 (fluorescence units) | entry to resting ratio | resting calcium signal, replicate 1 (fluorescence units) | resting calcium signal, replicate 2 (fluorescence units) | activity call
CG15239 | DRSC17972 | 2.31e7 | 3.26e7 | – | 1.15e7 | 1.44e7 | inactive
dpr13 (defective proboscis extension response 13) | DRSC06160 | 3.20e7 | 3.07e7 | – | 1.38e7 | 1.48e7 | inactive
dpr13 (defective proboscis extension response 13) | DRSC06464 | 3.06e7 | 3.20e7 | – | 1.35e7 | 1.55e7 | inactive
CG4607 | DRSC18375 | 3.59e7 | 4.91e7 | – | 1.84e7 | 2.18e7 | inactive
CG3164 | DRSC00572 | 3.98e7 | 4.60e7 | – | 1.86e7 | 1.88e7 | inactive
CG33268 | DRSC10143 | 3.09e7 | 3.49e7 | – | 1.66e7 | 1.55e7 | inactive
CG33704 | DRSC03838 | 3.15e7 | 4.82e7 | – | 1.44e7 | 1.91e7 | inactive
RpL12 (Ribosomal protein L12) | DRSC04344 | 1.01e7 | 8.94e6 | – | 8.21e6 | 6.76e6 | inactive
CG2082 | DRSC12125 | 3.25e7 | 3.80e7 | – | 1.65e7 | 1.89e7 | inactive
CG2608 | DRSC02709 | 4.46e7 | – | – | 2.45e7 | – | inactive
CG7322 | DRSC20036 | 4.66e7 | 3.71e7 | – | 2.16e7 | 1.57e7 | inactive
Rh2 (Rhodopsin 2) | DRSC16821 | 2.21e7 | 3.23e7 | – | 3.21e7 | 1.32e7 | inactive
ND-B22 (NADH dehydrogenase (ubiquinone) B22 subunit) | DRSC03193 | 3.22e7 | 2.13e7 | – | 1.66e7 | 1.12e7 | inactive
Rad17 | DRSC16811 | 3.05e7 | 4.15e7 | – | 1.53e7 | 6.75e7 | inactive
CG32988 | DRSC02692 | 2.37e7 | 3.11e7 | – | 1.06e7 | 1.36e7 | inactive
CG6414 | DRSC18401 | 2.49e7 | 3.26e7 | – | 1.30e7 | 1.57e7 | inactive
CG5478 | DRSC15814 | 3.94e7 | 3.26e7 | – | 1.92e7 | 6.15e7 | inactive
AkhR (Adipokinetic hormone receptor) | DRSC03329 | 3.42e7 | – | – | 1.60e7 | – | inactive
CG14711 + Zaf1 | DRSC14934 | 4.09e7 | 3.56e7 | – | 2.13e7 | 1.80e7 | inactive
CG18132 | DRSC00518 | 4.48e7 | 6.04e7 | – | 1.99e7 | 2.49e7 | inactive
CG6220 | DRSC06969 | 3.57e7 | 4.72e7 | – | 1.71e7 | 2.12e7 | inactive
CG15201 | DRSC19648 | 3.64e7 | 4.58e7 | – | 1.77e7 | 2.21e7 | inactive
Cht12 (Chitinase 12) | DRSC03844 | 3.35e7 | 6.96e7 | – | 1.53e7 | 2.93e7 | inactive
lolal (lola like) | DRSC06948 | 3.33e7 | 3.16e7 | – | 1.68e7 | 1.76e7 | inactive
GNBP2 (Gram-negative bacteria binding protein 2) | DRSC10404 | 3.75e7 | 4.89e7 | – | 1.69e7 | 3.21e7 | inactive
nwk (nervous wreck) | DRSC10439 | 5.97e7 | 4.33e7 | – | 3.86e7 | 1.71e7 | inactive
nwk (nervous wreck) | DRSC10442 | 3.12e7 | 2.94e7 | – | 1.49e7 | 1.27e7 | inactive
CG6553 | DRSC07002 | 3.86e7 | 3.50e7 | – | 1.95e7 | 1.53e7 | inactive
Lcp65Af | DRSC11213 | 2.62e7 | 3.09e7 | – | 1.22e7 | 1.31e7 | inactive
Strn-Mlck (Stretchin-Mlck) | DRSC05032 | 3.28e7 | 2.64e7 | – | 1.49e7 | 1.29e7 | inactive
Strn-Mlck (Stretchin-Mlck) | DRSC05598 | 1.65e7 | 4.34e7 | – | 8.35e6 | 2.09e7 | inactive
Strn-Mlck (Stretchin-Mlck) | DRSC06571 | 3.58e7 | 6.06e7 | – | 1.42e7 | 2.57e7 | inactive
Strn-Mlck (Stretchin-Mlck) | DRSC07471 | 2.79e7 | 3.12e7 | – | 1.18e7 | 1.54e7 | inactive
CG14915 | DRSC02399 | 3.80e7 | 5.86e7 | – | 1.99e7 | 2.45e7 | inactive
CG10171 | DRSC09711 | 5.72e7 | 3.57e7 | – | 3.25e7 | 1.49e7 | inactive
B4 | DRSC01868 | 3.82e7 | – | – | 1.97e7 | – | inactive
B4 | DRSC03175 | 3.55e7 | 2.45e7 | – | 1.60e7 | 1.20e7 | inactive

6 of these entries, reformatted.
{"Target gene": "CG6553", "DRSC id": "DRSC07002", "calcium entry signal, replicate 1 (fluorescence units)": 3.86e7, "calcium entry signal, replicate 2 (fluorescence units)": 3.50e7, "resting calcium signal, replicate 1 (fluorescence units)": 1.95e7, "resting calcium signal, replicate 2 (fluorescence units)": 1.53e7, "activity call": "inactive"}
{"Target gene": "Lcp65Af", "DRSC id": "DRSC11213", "calcium entry signal, replicate 1 (fluorescence units)": 2.62e7, "calcium entry signal, replicate 2 (fluorescence units)": 3.09e7, "resting calcium signal, replicate 1 (fluorescence units)": 1.22e7, "resting calcium signal, replicate 2 (fluorescence units)": 1.31e7, "activity call": "inactive"}
{"Target gene": "Strn-Mlck (Stretchin-Mlck)", "DRSC id": "DRSC05032", "calcium entry signal, replicate 1 (fluorescence units)": 3.28e7, "calcium entry signal, replicate 2 (fluorescence units)": 2.64e7, "resting calcium signal, replicate 1 (fluorescence units)": 1.49e7, "resting calcium signal, replicate 2 (fluorescence units)": 1.29e7, "activity call": "inactive"}
{"Target gene": "Strn-Mlck (Stretchin-Mlck)", "DRSC id": "DRSC05598", "calcium entry signal, replicate 1 (fluorescence units)": 1.65e7, "calcium entry signal, replicate 2 (fluorescence units)": 4.34e7, "resting calcium signal, replicate 1 (fluorescence units)": 8.35e6, "resting calcium signal, replicate 2 (fluorescence units)": 2.09e7, "activity call": "inactive"}
{"Target gene": "Strn-Mlck (Stretchin-Mlck)", "DRSC id": "DRSC06571", "calcium entry signal, replicate 1 (fluorescence units)": 3.58e7, "calcium entry signal, replicate 2 (fluorescence units)": 6.06e7, "resting calcium signal, replicate 1 (fluorescence units)": 1.42e7, "resting calcium signal, replicate 2 (fluorescence units)": 2.57e7, "activity call": "inactive"}
{"Target gene": "Strn-Mlck (Stretchin-Mlck)", "DRSC id": "DRSC07471", "calcium entry signal, replicate 1 (fluorescence units)": 2.79e7, "calcium entry signal, replicate 2 (fluorescence units)": 3.12e7, "resting calcium signal, replicate 1 (fluorescence units)": 1.18e7, "resting calcium signal, replicate 2 (fluorescence units)": 1.54e7, "activity call": "inactive"}

Additional results:
Target gene | DRSC id | calcium entry signal, replicate 1 (fluorescence units) | calcium entry signal, replicate 2 (fluorescence units) | entry to resting ratio | resting calcium signal, replicate 1 (fluorescence units) | resting calcium signal, replicate 2 (fluorescence units) | activity call
ICA69 (Islet cell autoantigen 69 kDa) | DRSC11621 | 3.95e7 | 4.42e7 | – | 1.77e7 | 2.98e7 | inactive
brp (bruchpilot) | DRSC06245 | 3.80e7 | 3.27e7 | – | 1.84e7 | 1.65e7 | inactive
brp (bruchpilot) | DRSC06246 | 3.86e7 | 4.24e7 | – | 1.87e7 | 1.95e7 | inactive
brp (bruchpilot) | DRSC06801 | 3.55e7 | 3.84e7 | – | 1.74e7 | 1.71e7 | inactive
brp (bruchpilot) | DRSC21893 | 3.55e7 | 5.39e7 | – | 1.64e7 | 2.70e7 | inactive
sip2 (septin interacting protein 2) | DRSC03154 | 3.52e7 | 3.72e7 | – | 1.75e7 | 1.73e7 | inactive
CG32651 | DRSC18941 | 3.39e7 | 4.23e7 | – | 1.51e7 | 2.13e7 | inactive
CG30275 | DRSC04163 | 3.97e7 | 4.31e7 | – | 1.95e7 | 1.88e7 | inactive
Kmn1 (kinetochore Mis12-Ndc80 network component 1) | DRSC19666 | 2.52e7 | 3.19e7 | – | 1.34e7 | 1.86e7 | inactive
Nepl4 (Neprilysin-like 4) | DRSC03239 | 4.92e7 | – | – | 2.49e7 | – | inactive
Pms2 | DRSC07511 | 2.73e7 | 1.98e7 | – | 1.15e7 | 9.55e6 | inactive
sv (shaven) | DRSC17221 | 4.33e7 | 6.17e7 | 2 | 2.13e7 | 2.56e7 | inactive
ACXD (Adenylyl cyclase X D) | DRSC07843 | 3.29e7 | 4.86e7 | – | 1.83e7 | 2.15e7 | inactive
Smyd3 (SET and MYND domain containing, class 3) | DRSC17744 | 5.61e7 | 5.23e7 | 2.1 | 2.67e7 | 2.25e7 | inactive
Usp47 (Ubiquitin specific protease 47) | DRSC11313 | 3.49e7 | 2.80e7 | – | 2.34e7 | 1.13e7 | inactive
Cyp313a5 (Cytochrome P450 313a5) | DRSC16628 | 3.61e7 | 2.61e7 | – | 1.77e7 | 1.43e7 | inactive
l(3)72Dn (lethal (3) 72Dn) | DRSC10468 | 2.37e7 | 2.84e7 | – | 1.39e7 | 2.25e7 | inactive
CG34331 | DRSC20679 | 4.79e7 | 4.48e7 | – | 2.48e7 | 2.10e7 | inactive
CG14423 | DRSC17920 | 5.76e7 | 5.23e7 | 1.9 | 2.99e7 | 2.33e7 | inactive
DCAF12 (DDB1 and CUL4 associated factor 12) | DRSC15475 | 2.74e7 | 3.50e7 | – | 1.27e7 | 1.56e7 | inactive
ng4 (new glue 4) | DRSC18805 | 5.24e7 | 6.05e7 | 2.1 | 2.47e7 | 2.49e7 | inactive
